# In PubChem BioAssay AID1347075 (National Center for Advancing Translational Sciences (NCATS), 2019):
# Out of some 400,000 compounds screened, about 5,500 (1.4%) were called active. Inconclusive results, whose numbers are uncertain, are shown with a selection of clear calls. Calls follow the shape of the dose curve; as a rule, active = well fitted cell-killing curve with a large enough effect; inconclusive = small, poorly fitted or top-dose-only effect, or effect the other way; inactive = flat fitted curve, though single readings scatter. Potencies of inconclusive entries are doubtful fits and often do not repeat.
# Test: qHTS assay for MDR1-selective chemotherapeutics: Primary screen using the parental adenocarcinoma cell KB-3-1; also: nearly all actives have a fitted effect of over 60% in size
# Settings: KB-3-1 viability, CellTiter-Glo ATP luminescence, 72 h; activity change, negative = cytotoxic: at 46.1 µM (top of the series)
# Method in brief: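 72 h, 37 °C compound treatment of KB-3-1 parental cells; CellTiter-Glo added, 10 min, luminescence read. Data corrected against DMSO-only plates and normalized before curve fitting.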
# % is scaled to controls: 0 for no effect and ±100 for the full control effect; potency is read from the fitted curve at half-maximal effect.
SMILES,"activity change, negative = cytotoxic",Potency
CCn1cc(C(=O)NCCc2ccccc2)c(=O)c2cc(S(=O)(=O)N3CCCC3)ccc21,inactive: 9.09%,–
Cc1ccc(C)c(C(=O)c2ccccc2NC(=O)c2ccccn2)c1,–,"inconclusive: 29.1 µM [cytotoxic, partial curve, poor fit]"
CC1Cc2cc(-c3csc(NC(=O)Cc4ccccc4)n3)ccc2N1S(C)(=O)=O (configuration not stated),–,active: 20.6 µM
Cc1oc2c(CN3CCCC(C)C3)c(O)ccc2c(=O)c1-c1ccccc1 (configuration not stated),–,"inconclusive: 20.6 µM [cytotoxic, partial curve, poor fit]"
COc1ccccc1Nc1c2c(nc3ccc(NC(=O)c4cccc(F)c4)cc13)CCCC2,–,active: 20.6 µM
O=[N+]([O-])c1ccc(/C=N/N=C/c2ccc([N+](=O)[O-])o2)o1,–,"inconclusive: 3.26 µM [cytotoxic, partial curve, poor fit]"
Cc1cc(C)c(C)c(OCCNCc2ccccc2)c1,inactive: -25.6%,–
O=C(Nc1ccc(Cl)c(Cl)c1)Nc1ccccc1C(=O)O,–,"inconclusive: 14.6 µM [cytotoxic, partial curve, poor fit]"
CCOC(=O)c1c(C)sc2c1N(C(=O)CN(CC)CC)c1cc(Cl)ccc1S2,–,"inconclusive: 25.9 µM [cytotoxic, single point]"
COc1cc2ccnc(Cc3cccc(OC)c3OC)c2cc1OC,–,active: 7.31 µM
Cc1ccc(NC(=S)NNc2ncc(C(F)(F)F)cc2Cl)cc1,–,"inconclusive: 29.1 µM [cytotoxic, single point]"
Nc1cccc2[nH]c(=O)c3ccccc3c12,–,"inconclusive: 9.2 µM [rising, partial curve]"
CCC(=O)Nc1ccc(Br)cn1,–,"inconclusive: 18.4 µM [rising, single point]"
Cc1cc(Cl)n2c(nc3ccccc32)c1C#N,inactive: 16.7%,–
Cc1cc(F)cc(-c2cc(C(=O)NCC3CCCCC3)[nH]n2)c1,inactive: 0%,–
CN(C)C(=S)N=c1ssc(=S)n1Cc1cccnc1,–,"inconclusive: 1.3 µM [cytotoxic, full curve, poor fit]"
CCOc1ccc(-c2nnc(NC(=O)c3ccc(OCC(C)C)c(OC)c3)o2)cc1,–,"inconclusive: 18.4 µM [cytotoxic, single point]"
COC(=O)[C@]12CCCCC=C1N(Cc1cccc3ccccc13)C(=O)[C@H](CC(=O)NCCCCc1ccccc1)C2,–,"inconclusive: 20.6 µM [cytotoxic, single point]"
Cc1ccccc1NC(=O)C1Cc2ccccc2CN1C(=O)OCc1ccccc1 (configuration not stated),–,"inconclusive: 29.1 µM [cytotoxic, single point]"
COc1ccc(CC(NC(C)=O)C(=O)N2CCN(C(=O)Nc3ccc(Cl)cc3)CC2)cc1OC (configuration not stated),–,"inconclusive: 16.4 µM [rising, single point]"
C#CCOCCOCCOCCNc1nc(N2CCN(C(=O)CCCCCCCCCCNC(=O)[C@H](CCCCN)n3cc(CCCC(=O)O)nn3)CC2)nc(N2CCN(C(=O)CCCCCCCCCCNC(=O)[C@H](CCCN=C(N)N)n3cc(C[C@@H](C)CC)nn3)CC2)n1,–,"inconclusive: 23.1 µM [cytotoxic, single point]"
Cc1nc2c(Cl)cccc2c2c1CC(CBr)O2 (configuration not stated),–,"inconclusive: 29.1 µM [cytotoxic, single point]"
COc1cc(OC)c2c(-c3cccc(-c4ccc(CO)cc4)c3)cc(=O)oc2c1,–,"inconclusive: 0.92 µM [cytotoxic, full curve, poor fit]"

SMILES,"activity change, negative = cytotoxic",Potency
CN1/C(=C\C=[N+](C)c2ccccc2)C(C)(C)c2ccccc21,–,active: 3.26 µM
CCOC(=O)N1CCN(c2ccncc2S(=O)(=O)N2CCCCC2)CC1,inactive: 3%,–
COc1ccc(Cc2nnc(N/N=C/c3ccccc3O)[nH]c2=O)cc1OC,–,"inconclusive: 0.731 µM [cytotoxic, full curve, poor fit]"
COc1ccc(C2Nc3ccccc3C(=O)N2Cc2ccccc2)cc1COc1ccccn1 (configuration not stated),–,"inconclusive: 29.1 µM [rising, single point]"
Cc1ncc(CO)c(CO)c1OCC(O)CN1CCN(c2ccc(F)cc2)CC1 (configuration not stated),–,"inconclusive: 23.1 µM [cytotoxic, partial curve, poor fit]"
COc1cc(/C=C/C2=NNC(=O)CC2)cc(OC)c1OC,–,active: 0.517 µM
Clc1ccc(/C=C/c2ccc3ccccc3n2)cc1Cl,–,"inconclusive: 29.1 µM [cytotoxic, single point]"
Cc1[nH]c2ccc(C(=O)OC(C)C(=O)N(C)C3CCCCC3)cc2c1C (configuration not stated),–,"inconclusive: 23.1 µM [cytotoxic, single point]"
Cc1ccc(N2CCN(C(=S)Nc3ccccc3)CC2)cc1,inactive: 4.66%,–
COc1ccc(-c2c(S(=O)(=O)c3ccccc3)cnn2-c2ccccc2)cc1,–,"inconclusive: 29.1 µM [cytotoxic, single point]"
COCc1nnc(NC(=O)c2ccc(S(=O)(=O)N(C)Cc3ccccc3)cc2)o1,–,"inconclusive: 23.1 µM [cytotoxic, single point]"
Cc1cc(C(=O)Nn2cnc3ccccc3c2=O)ccc1[N+](=O)[O-],inactive: 3.41%,–
Oc1cccc(C(Nc2nccs2)c2ccc3cccnc3c2O)c1 (configuration not stated),–,active: 3.26 µM
CC1CCCN(CCCNC(=O)c2ccc3c(c2)N(Cc2ccc(F)cc2)C(=O)c2ccccc2S3=O)C1 (configuration not stated),inactive: 4.93%,–
O=C(CN1CCN(Cc2cccc3ccccc23)CC1)NCCc1ccccc1,inactive: 3.46%,–
Cc1ccc(C)c(N2CCN(C(=O)c3ccc4[nH]c(C)c(C)c4c3)CC2)c1,–,"inconclusive: 16.4 µM [cytotoxic, single point]"
CCOC(=O)c1cnc2c(OC)cccc2c1Nc1ccc2c(c1)OCCO2,–,"inconclusive: 29.1 µM [cytotoxic, single point]"
CCN(CC)C(=O)c1ccc(S(=O)(=O)Cc2ccc(C)cc2)c([N+](=O)[O-])c1,–,"inconclusive: 14.6 µM [cytotoxic, partial curve, poor fit]"
CCCN1CC(=O)N2C(c3cccc(OC)c3OC)c3[nH]c4ccccc4c3C[C@H]2C1=O (some centres not stated),–,"inconclusive: 10.3 µM [cytotoxic, partial curve, poor fit]"
Fc1ccc(C2CC(c3cccs3)=NN2C(=S)Nc2ccccc2)cc1 (configuration not stated),inactive: -13%,–
COCc1cc(=O)[nH]c(Nc2nc(C)c3ccccc3n2)n1,–,"inconclusive: 29.1 µM [cytotoxic, single point]"
Cc1[nH]n(-c2ccccc2)c(=O)c1/C=N/NC(=O)c1cccc([N+](=O)[O-])c1,–,"inconclusive: 29.1 µM [cytotoxic, single point]"
O=C(NCCn1cc(SCc2ccccc2)c2ccccc21)c1ccccc1F,–,"inconclusive: 29.1 µM [cytotoxic, single point]"

# Taken from the listing, two compounds:
SMILES,"activity change, negative = cytotoxic",Potency
Clc1ccc(/C=C/c2ccc3ccccc3n2)cc1Cl,–,"inconclusive: 29.1 µM [cytotoxic, single point]"
Cc1[nH]c2ccc(C(=O)OC(C)C(=O)N(C)C3CCCCC3)cc2c1C (configuration not stated),–,"inconclusive: 23.1 µM [cytotoxic, single point]"

# Further structures:

SMILES,"activity change, negative = cytotoxic",Potency
Cc1nc2ccc(NS(=O)(=O)c3ccc(Br)cc3)cc2s1,–,active: 23.1 µM
Clc1ccc2c(c1)nc1n2CCCC1,inconclusive: -62.8%,–
COC(=O)c1ccccc1NC(=O)c1cc[n+](C)cc1,inconclusive: -4.59%,–
COc1cccc(-c2nc(=S)c3c(n2Cc2ccco2)CCCC3)c1,inactive: -3.33%,–
Cc1cc(C(=O)N2CCN(C(c3ccccc3)c3ccccc3)CC2)on1,–,"inconclusive: 2.06 µM [cytotoxic, partial curve, poor fit]"
N#Cc1c(C(F)(F)F)cc(-c2cccs2)nc1SCc1cccnc1,–,"inconclusive: 29.1 µM [cytotoxic, single point]"
Cc1nc(N2CCN(Cc3ccc4c(c3)OCO4)CC2)c2cc(-c3ccccc3)sc2n1,–,"inconclusive: 23.1 µM [cytotoxic, single point]"
CSc1nc(N(C)NC(=O)c2ccc(F)cc2)c2ccccc2n1,–,active: 0.651 µM
O=C(Nc1ccc(F)cc1F)c1sccc1SCc1cccc(C(F)(F)F)c1,inactive: -28.2%,–
CC(C)c1cc(C(=O)OCC(=O)NC(=O)NCc2ccco2)c(O)c(C(C)C)c1,–,"inconclusive: 29.1 µM [cytotoxic, single point]"
c1cc[n+](CCCC[n+]2ccccc2)cc1,inactive: 17.2%,–
COc1cc([C@@H]2c3cc4c(cc3[C@@H](O[C@@H]3O[C@@H]5CO[C@@H](C)O[C@H]5[C@H](O)[C@H]3O)[C@H]3COC(=O)[C@H]23)OCO4)cc(OC)c1O,–,active: 16.4 µM
Cc1ccc(C)c(N2CCN(C(=O)CCS(=O)(=O)c3ccc4c(c3)CCN4C(=O)C3CC3)CC2)c1,–,"inconclusive: 29.1 µM [cytotoxic, single point]"
COCCn1c(SCC(=O)Nc2ccc(OC)c(S(N)(=O)=O)c2)nc2ccccc21,–,"inconclusive: 2.91 µM [cytotoxic, partial curve, poor fit]"
CC1CCCCN1S(=O)(=O)c1ccc(C(=O)Nc2nnc(C3CC3)o2)cc1 (configuration not stated),–,"inconclusive: 29.1 µM [cytotoxic, single point]"
COc1ccc(CN(C2CC2)S(=O)(=O)c2ccccc2Br)cc1,–,"inconclusive: 29.1 µM [cytotoxic, partial curve, poor fit]"
CCCCCCN1CC(=O)N2Cc3[nH]c4ccccc4c3C[C@H]2C1=O,inactive: 0.44%,–
Cc1cc(C(=O)NNC(=O)CCN2CCN(c3ccccc3)CC2)c2ccccc2n1,–,"inconclusive: 29.1 µM [cytotoxic, single point]"
CCOC(=O)C1=CCN(S(=O)(=O)c2ccc(C)cc2)C1c1ccccc1F (configuration not stated),–,"inconclusive: 32.6 µM [cytotoxic, partial curve, poor fit]"
Cc1ccc(NC(=O)CN(c2cc(C)cc(C)c2)S(=O)(=O)c2c(C)noc2C)nc1,–,"inconclusive: 25.9 µM [cytotoxic, single point]"
CCCCNC(=O)c1cn(C)c2ccc(S(=O)(=O)N3CC(C)CC(C)C3)cc2c1=O (configuration not stated),–,"inconclusive: 18.4 µM [cytotoxic, single point]"

# Some of the entries above, set out differently.
SMILES	activity change, negative = cytotoxic	Potency
CCCCCCN1CC(=O)N2Cc3[nH]c4ccccc4c3C[C@H]2C1=O	inactive: 0.44%	–
Cc1cc(C(=O)NNC(=O)CCN2CCN(c3ccccc3)CC2)c2ccccc2n1	–	inconclusive: 29.1 µM [cytotoxic, single point]
